Assay results as given in publication PMC11684019, “Unveiling the Antimycobacterial Potential of Novel 4-Alkoxyquinolines: Insights into Selectivity, Mechanism of Action, and In Vivo Exposure” (Journal of Medicinal Chemistry, 2024).
Read-outs that look alike come from different tables or passages of the source. Marks after values point to notes of the source that are not given here.

Assays:
HepG2 cells [1] = conditions: SI = CC50/MIC H37Rv, MTT method
HepG2 cells [2] = conditions: SI = CC50/MIC H37Rv, Neutral Red method

Molecule	SI HepG2 (HepG2 cells [1])	SI HepG2 (HepG2 cells [2])
Cc1cc(OCCCNc2ccc(Cl)cc2)c2cc(Br)ccc2n1 [8r, N-(3-((6-bromo-2-methylquinolin-4-yl)oxy)propyl)-4-chloroaniline]	>200 ^b; > 200 ^c	
N-(3-((6-bromo-2-ethylquinolin-4-yl)oxy)propyl)-4-ethylaniline [8w]	> 200	83
